At least one compound was matched to its structure with a doubt left.
Tested on: ARDS
Experiment: Inhaled gas treatment of patients with ARDS (Examples II, VI, VII, VIII)
Format: in vivo, human
Conditions: Example VIII; ascorbate 2 grams IV Q 6 hours begun after three days of ethylnitrite; over the day; from 40

Q: `O=C1O[C@H]([C@@H](O)CO)C(O)=C1O` [Ascorbate, reference compound] was tested. Which PaO2 did it give?
A: Its PaO2 is 55 mm Hg.
